{"source": "PubChem BioAssay AID624297", "about": "(National Center for Advancing Translational Sciences (NCATS), 2012)", "note": "The campaign covered roughly 340,000 compounds. About 6,200 (1.8%) were called active. Inconclusive results, whose numbers are uncertain, are shown with a selection of clear calls. The call rests on the fitted dose curve; in most records, active means well fitted activation curve with a large enough effect; inconclusive means small, poorly fitted or top-dose-only effect; inactive means no such curve, though single readings can be large or run the other way. Where the call is inconclusive, the potency comes from a doubtful curve fit. Potency means the concentration at half of the fitted maximal effect."}
{"assay": "A quantitative high throughput screen for small molecules that induce DNA re-replication in SW480 colon adenocarcinoma cells; further: nearly all actives have a fitted effect of over 55% in size; on re-replication activation: % of control where 0% means no effect.", "settings": "Hoechst DNA content imaging, 48 h; re-replication activation: at 46.1 µM (top of the series) unless noted", "how_it_was_run": "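Cells (250 per well) received 23 nL compound or DMSO by pin tool and were kept 48 hr at 37 C, 5% CO2. Nuclei were then stained with Hoechst for 40 min and scanned for DNA content.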"}
{"smiles": "CCOc1cc(CNCCSc2nnnn2C)cc(Br)c1OCc1ccc(F)cc1", "Potency": "inconclusive: 25.9 µM [activator, single point]"}
{"smiles": "CCc1ccc(-c2cc3c(=O)n(CC(=O)N4CCCCCC4)nc(C)n3n2)cc1", "Potency": "inconclusive: 18.4 µM [activator, partial curve, poor fit]"}
{"smiles": "C#CCOCCOCCOCCNc1nc(N2CCN(C(=O)CCCCCCCCCCNC(=O)[C@H]([C@@H](C)CC)n3cc(CCCCN=C(N)N)nn3)CC2)nc(N2CCN(C(=O)CCCCCCCCCCNC(=O)[C@H](CO)n3cc(CCCSC)nn3)CC2)n1", "Potency": "inconclusive: 0.001 µM [activator]"}
{"smiles": "O=C(COc1ccc(F)c(Cl)c1)Nc1ccc(N2CCOCC2)cc1", "Potency": "inactive"}
{"smiles": "Cc1cc(=O)c2ccc(C(F)(F)F)cc2[nH]1", "Potency": "inconclusive: 29.1 µM [activator, single point]"}
{"smiles": "COC(=O)[C@]1(C)N[C@H](CN(C)S(=O)(=O)c2ccccc2)[C@@H]2C(=O)N(Cc3ccccc3)C(=O)[C@@H]21", "Potency": "inconclusive: 0.461 µM [activator, full curve, poor fit]"}
{"smiles": "C#CCNC(=O)C1=C[C@H](C2CC2)C[C@H](OCCCCO)O1", "Potency": "inconclusive: 2.06 µM [activator, single point]"}
{"smiles": "CCCOc1cccc(-c2cc(C(=O)N/N=C/c3ccccn3)c3ccccc3n2)c1", "Potency": "inconclusive: 13 µM [activator, partial curve]"}
{"smiles": "COc1ccc(N2C(=O)CC(Sc3ccccc3C(=O)O)C2=O)c([N+](=O)[O-])c1", "note": "(stereo unspecified)", "Potency": "inconclusive: 29.1 µM [activator, single point]"}
{"smiles": "COC(=O)C1=C(C)N(Cc2ccccc2)C(=NCC(C)C)N[C@H]1c1ccccc1", "Potency": "inactive"}
{"smiles": "O=C(O)CN1C(=O)/C(=C\\C(Br)=C\\c2ccccc2)SC1=S", "Potency": "inconclusive: 29.1 µM [activator, single point]"}
{"smiles": "O=C1NC(c2cccc3ccccc23)Nc2ccccc21", "note": "(stereo unspecified)", "Potency": "inconclusive: 0.651 µM [activator, full curve, poor fit]"}
{"smiles": "O=C(NC(NCC1CCCO1)C(Cl)(Cl)Cl)c1cccc2ccccc12", "note": "(stereo unspecified)", "Potency": "inconclusive: 32.6 µM [activator, partial curve, poor fit]"}
{"smiles": "COc1ccc(Nc2nc(N)nc(CSC(=S)N3CCCCC3C)n2)cc1", "note": "(stereo unspecified)", "Potency": "inconclusive: 29.1 µM [activator, single point]"}
{"smiles": "C=CCN(c1ccccc1)S(=O)(=O)c1cccc(C(=O)NNC(=O)c2ccccc2O)c1", "Potency": "inconclusive: 29.1 µM [activator, partial curve, poor fit]"}
{"smiles": "O=C(CCN1C(=O)/C(=C/c2ccccc2)SC1=S)N[C@@H](CO)Cc1ccccc1", "Potency": "inconclusive: 29.1 µM [activator, single point]"}
{"smiles": "COC(=O)c1[nH]c2cccc(C)c2c1NC(=O)CN1CCCc2ccccc21", "Potency": "inconclusive: 32.6 µM [activator, partial curve, poor fit]"}
{"smiles": "C=CCn1c(SCC(=O)N(C)c2c(N)n(Cc3ccccc3)c(=O)[nH]c2=O)nnc1-c1ccccc1OC", "Potency": "inconclusive: 6.51 µM [activator, partial curve, poor fit]"}
{"smiles": "O=C(Nc1ccccc1Cl)c1ccc(-n2cccn2)c([N+](=O)[O-])c1", "Potency": "inconclusive: 18.4 µM [activator, partial curve, poor fit]"}
{"smiles": "O=C(c1ccc(S(=O)(=O)N2CCCCC2)cc1)N1CCN(CCN2C(=O)c3cccc4cccc(c34)C2=O)CC1", "Potency": "inactive"}
{"smiles": "CC1CCCCN1CCNC(=O)c1cc2c(=O)n(C)c3ccccc3c2n1C", "note": "(stereo unspecified)", "Potency": "inactive"}
{"smiles": "COc1ccc(CC(=O)NC(=S)NNC(=O)COc2c(C)cccc2C)cc1", "Potency": "inactive"}
{"smiles": "CC(=O)c1sc(-c2ccc(F)cc2)cc1NS(=O)(=O)c1ccc(C)cc1", "Potency": "inactive"}
{"smiles": "S=c1[nH]c2ccccc2n1CCOc1ccccc1", "re-replication activation": "inconclusive: 16.5% [activator]"}
{"smiles": "CN(C)c1ccc(N=Cc2cccn2C)cc1", "Potency": "inconclusive: 9.2 µM [activator, partial curve, poor fit]"}
{"smiles": "Cc1onc(-c2c(F)cccc2Cl)c1C(=O)c1ccccc1O", "Potency": "inconclusive: 29.1 µM [activator, single point]"}
{"smiles": "CCc1ccc(Nc2n[n+](-c3ccccc3)c(-c3cccc(Cl)c3Cl)s2)cc1", "Potency": "inconclusive: 3.26 µM [activator, partial curve, poor fit]"}
{"smiles": "OC(COc1ccc2cc(Br)ccc2c1)Cn1ccnc1", "note": "(stereo unspecified)", "Potency": "inconclusive: 29.1 µM [activator, single point]"}
{"smiles": "O=C(O)c1ccccc1/C=N/n1c(C2CCCCC2)n[nH]c1=S", "Potency": "inactive"}
{"smiles": "O=C(N/N=C/c1ccc[nH]1)c1ccc(O)cc1", "Potency": "inactive"}
{"smiles": "CC(=O)c1ccc(NS(=O)(=O)c2cc(-c3cnc(C4CC4)o3)ccc2C)cc1", "Potency": "inconclusive: 20.6 µM [activator, single point]"}
{"smiles": "COc1ccnc(CSC(N)=Nc2cccc(C(F)(F)F)c2)c1", "Potency": "inconclusive: 29.1 µM [activator, single point]"}
{"smiles": "CCN1CCC2(CC1)N=C(c1ccc(F)cc1)C(=S)N2", "Potency": "inconclusive: 6.51 µM [activator, single point]"}
{"smiles": "O=C(NCC1CCCO1)C1CCCN1C(=O)Nc1ccc(Cl)c(Cl)c1", "note": "(stereo unspecified)", "Potency": "inactive"}
{"smiles": "CC(C)(C)OC(=O)N1CCC(NC(=O)c2[nH]cnc2C(=O)Nc2cccc(Cl)c2)CC1", "Potency": "inactive"}
{"smiles": "COc1ccc(S(=O)(=O)N2c3ccccc3NC(=O)CC2C)cc1", "note": "(stereo unspecified)", "Potency": "inactive"}
{"smiles": "CC1CCN(CC(=O)Nc2ccccc2-c2ccccc2)CC1", "Potency": "inconclusive: 20.6 µM [activator, partial curve, poor fit]"}
{"smiles": "COc1ccc(C(=O)N[C@H](C(=O)Nc2sccc2C(N)=O)C(C)C)cc1", "Potency": "inactive"}
{"smiles": "CC1CC(Nc2ccccc2)c2ccccc2N1C(=O)c1ccccc1F", "note": "(stereo unspecified)", "Potency": "inconclusive: 0.82 µM [activator, full curve, poor fit]"}
{"smiles": "Oc1ccc2c(c1)OCC1(O)Cc3cc(O)c(O)cc3C21", "note": "(stereo unspecified)", "Potency": "inconclusive: 14.6 µM [activator, partial curve, poor fit]"}
{"smiles": "FC(F)(F)c1nnc(-c2ccccc2)nc1Sc1ccc(Cl)cc1", "Potency": "inconclusive: 14.6 µM [activator, partial curve]"}
{"smiles": "COc1ccccc1-n1cc(-c2ccc(Br)cc2)[nH]c1=S", "Potency": "inconclusive: 18.4 µM [activator, single point]"}
{"smiles": "CC(=O)c1cccc(NC(=O)C(C)OC(=O)/C=C/c2cccs2)c1", "note": "(stereo unspecified)", "Potency": "inconclusive: 14.6 µM [activator, partial curve]"}
{"smiles": "S=c1[nH]nc(COc2ccccc2)n1/N=C/c1ccc(Cl)c(Cl)c1", "Potency": "inactive"}
{"smiles": "COc1cccc(NC(=O)Nc2nnc(Cc3ccccc3F)s2)c1", "Potency": "inactive"}
{"smiles": "CC(C)c1onc(C(=O)NCc2ccccc2)c1[N+](=O)[O-]", "Potency": "inconclusive: 35.5 µM [activator, single point]"}
{"smiles": "CCn1c(SCC(=O)c2cc(C)n(C)c2C)nnc1-c1ccccc1", "Potency": "inconclusive: 18.4 µM [activator, single point]"}
{"smiles": "O=C(O)c1nc(-c2ccccc2)n(-c2ccccc2)n1", "Potency": "inactive"}
{"smiles": "CCC/C(C#Cc1ccsc1)=C1/c2ccccc2C(=O)N1c1ccccc1", "Potency": "inconclusive: 9.2 µM [activator, partial curve]"}
{"smiles": "CCOc1ccccc1N(C(=O)c1snc(C(N)=O)c1N)C(C(=O)NC1CCCC1)c1cccs1", "note": "(stereo unspecified)", "Potency": "inconclusive: 16.4 µM [activator, partial curve, poor fit]"}
{"smiles": "COc1cc2c(cc1O)C(SC)=NC(C)(C)C2", "Potency": "inconclusive: 29.1 µM [activator, single point]"}
{"smiles": "CCOc1ccccc1NC(=O)c1ccc2c(c1)C(=O)N(CC1CCCO1)C2=O", "note": "(stereo unspecified)", "Potency": "inactive"}
{"smiles": "Cc1cc(SCc2ccc(F)cc2)nc(=O)[nH]1", "Potency": "inconclusive: 0.164 µM [activator, full curve, poor fit]"}
{"smiles": "Cc1ccc(Cl)c(OCC(=O)NC2CCN(Cc3ccccc3)CC2)c1", "Potency": "inconclusive: 14.6 µM [activator, partial curve, poor fit]"}
{"smiles": "Cc1ccc(/C=C/C(=O)N2CCN(S(=O)(=O)c3c(C)c(C)cc(C)c3C)CC2)o1", "Potency": "inconclusive: 23.1 µM [activator, partial curve, poor fit]"}
{"smiles": "CCC[C@@H]1C[C@@]1(CCC)[C@@H](NC(=O)c1ccccc1)c1ccc(C(=O)OC)cc1", "Potency": "inconclusive: 18.4 µM [activator, partial curve, poor fit]"}
{"smiles": "O=C(Cc1ccccc1F)NC1CCCN(Cc2ccc(Cl)cc2)C1", "note": "(stereo unspecified)", "Potency": "inconclusive: 0.184 µM [activator, full curve, poor fit]"}
{"smiles": "O=C(O)C1C(c2ccccc2)c2ccccc2C(O)C1CO", "note": "(stereo unspecified)", "Potency": "inconclusive: 0.13 µM [activator, full curve, poor fit]"}
{"smiles": "CC1(c2nnc(-c3ccc(F)cc3)o2)CC(c2ccc([N+](=O)[O-])cc2)=NO1", "note": "(stereo unspecified)", "Potency": "inconclusive: 1.46 µM [activator, partial curve, poor fit]"}
{"smiles": "Clc1ccc(CNCCCSc2ncccn2)cc1Cl", "Potency": "inactive"}
{"smiles": "N#CC1=C(S)N(c2ccc(F)cc2)C(c2ccco2)NC1=O", "note": "(stereo unspecified)", "Potency": "inconclusive: 32.6 µM [activator, partial curve, poor fit]"}
{"smiles": "CCOC(=O)c1ccc2nc(NC(=O)C(C)C)sc2c1", "Potency": "inactive"}
{"smiles": "CCCCn1c(=O)c(CCC(=O)OCC(=O)Nc2ccc(F)c(Cl)c2)nc2ccccc21", "Potency": "inactive"}
{"smiles": "COc1ccc(N2CCN(Cc3nc4scc(-c5ccccc5)c4c(=O)[nH]3)CC2)cc1", "Potency": "inactive"}
{"smiles": "O=Cc1nc(-c2ccc(Cl)cc2)n2ccccc12", "Potency": "inconclusive: 0.103 µM [activator, full curve, poor fit]"}
{"smiles": "Nc1c(Cl)ncnc1NCc1cccnc1", "Potency": "inactive"}
